Data set [1] has as its system intracellular forms of T. cruzi (Tulahuen strain). The data set can be described thus: Activity against intracellular forms of T. cruzi (Tulahuen-β gal strain) in L929 cultures, CPRG readout. Format: cell-based, Trypanosoma cruzi. Particulars: seven days. An excerpt: L929 cell lines were used to evaluate the effect of the nucleoside derivatives on the cellular viability of mammalian host cells and to assess their activity against intracellular forms of T. cruzi (Tulahuen strain expressing E. coli β-galactosidase gene, DTU VI) as reported. 2D and 3D culture systems of rat cardiomyoblast cell lines (H9C2(2-1)) were used to evaluate cardiotoxicity and to test the derivatives’ activity on intracellular forms (Y strain, DTU II). In all assays, the cell cultures were maintained at 37 °C under an atmosphere of 5% CO2.
(§1) Bloodstream trypomastigotes of the Y strain (DTU II) were obtained by cardiac puncture of infected Swiss Webster mice on the parasitemia peak to perform drug sensitivity assays. Trypomastigote forms of the Tulahuen-β gal strain were collected from the supernatant of previously infected L929 cell cultures (host/parasite cell ratio 10:1). The intracellular forms T. cruzi were studied by the infection of L929 and H9C2 (2D and 3D) cell cultures infected for 48 and 24 h with trypomastigotes of Tulahuen-β gal and Y strains, respectively. The Leishmania mexicana-Cas9 T7 strain (LmexCas9) was derived from L. mexicana WT promastigotes by expression of the Streptococcus pyogenes Cas9 nuclease gene ‘Cas9′ and maintained on 32 μg/mL hygromycin [51]. This strain and the derived strains Cas9^ΔNT1 and Cas9^ΔNT1+TcrNT2 were cultured in HOMEM medium supplemented with 10% of FBS and 1% Penicillin-Streptomycin antibiotic in unvented flasks at 25 °C [52]. The Cas9^ΔNT1 strain is identical to Cas9 except that the LmexNT1.1/NT1.2 locus encoding the L. mexicana adenosine/ pyrimidine transporters was excised using Cas9 [17, 40]. Cas9^ΔNT1+TcrNT2 is the further modification of that strain by the expression of the T. cruzi nucleoside transporter 2 (TcrNT2) gene in it, using the vector pNUS-HcN [53]. Appropriate antibiotics were added for the selection and maintenance of transfectants.
In an initial step, nucleoside derivatives were assayed against intracellular forms of Tulahuen-β gal strain in L929 cell lines. Assays were performed in sterile 96-well microtiter plates with 4 × 10^3 cells/well and 4 × 10^4 parasites/well (host/parasite cell ratio 1:10). […] Parasite burden was analyzed by adding the substrate CPRG (chlorophenol red ß-D-galactopyranoside) followed by measurements (spectrophotometrically) at 570 nm. The results were expressed as percentage of reduction in parasite growth compared to untreated cells, and EC50 values were calculated. […] After seven days of treatment, the cultures were fixed, stained with Giemsa, and 200 cells were quantified by light microscopy. The results were expressed as % of reduction in parasite burden. […]

Data set [2] concerns bloodstream trypomastigotes of T. cruzi (Y strain). In words: Activity against bloodstream trypomastigotes, light microscopy counting. Particulars: IC50 H9C2 / EC50 bloodstream trypomastigotes Y strain, 24 h. Format: cell-based, Trypanosoma cruzi. On the procedure: as §1
To analyze the compound activity against bloodstream trypomastigotes of T. cruzi (Y strain), […] of parasite were added in 96-well microtiter plates and incubated for 2 or for 24 h at 37 °C in RPMI culture medium in the presence or absence of each compound (up to 30 µM). The death rates were quantified by light microscopy using a Neubauer chamber to determine the EC50 [49, 58]. The data results from two independent experiments performed in duplicate were obtained.

A value given as a limit tells only on which side of the number the result lay.

Turning to `O=C(Cn1ccnc1[N+](=O)[O-])NCc1ccccc1` [Bz, Benznidazole, reference compound], the “SI (IC50/EC50)” value in data set [1] is listed as greater than 101.5; in data set [2] it was greater than 43.48.
For `Nc1ncnc2c1c(-c1ccc(Cl)c(Cl)c1)cn2[C@@H]1O[C@H](CO)C[C@H]1O` [FH8513, 7-(3,4-dichlorophenyl)-3′-deoxytubercidin], the “SI (IC50/EC50)” value in data set [1] is recorded as 111.3; in data set [2], 45.34.
As to `Nc1ncnc2c1c(-c1ccc(Cl)c(F)c1)cn2[C@@H]1O[C@H](CO)[C@@H](O)[C@H]1O` [FH10714, 7-(3-fluoro,4-chlorophenyl)tubercidin], the results for the “SI (IC50/EC50)” value in data set [1] and in data set [2] were 118.6 and greater than 22.39, respectively.
On to `Nc1ncnc2c1c(-c1ccc(F)c(F)c1)cn2[C@@H]1O[C@H](CO)[C@@H](O)[C@H]1O` [FH11706, 7-(3,4-Difluorophenyl)tubercidin], for which the “SI (IC50/EC50)” value in data set [1] was 106.7; in data set [2], greater than 17.06.

The values are drawn from publication PMC9695592, “Phenotypic Evaluation of Nucleoside Analogues against Trypanosoma cruzi Infection: In Vitro and In Vivo Approaches” (Molecules, 2022).
